Experimental data taken from patent EP1647556B1, “Peptidic compounds and derivatives thereof for the treatment of human diseases through inhibition of signaling via growth factors” (Karlsruher Institut für Technologie, priority 2004, dated 2006).
Part of at least one peptide drawing is inferred or uncertain, most often the ends. No end group written: not given here.

Legend:
phosphorylation of ERK [1] = experiment: Peptide competition assay: HGF-induced ERK phosphorylation (Western blot) in BSp73AS10 cells stably transfected with CD44v6; type: cell-based, rat; conditions: BSp73AS10 CD44v6 transfectants
phosphorylation of ERK [2] = experiment: Peptide competition assay: HGF-induced ERK phosphorylation (Western blot) in HEK-293T cells; type: cell-based, human; conditions: 2 and 10 ng/ml peptide for 5 min, then 10 ng/ml HGF for 5 min
phosphorylation of ERK [3] = experiment: Peptide competition assay: HGF-induced ERK phosphorylation (Western blot) in HT29 colon carcinoma cells; type: cell-based, human; conditions: 2 and 10 ng/ml peptide for 5 min, then 10 ng/ml HGF for 5 min

## KEKWFENEWQGKNP [v6-II, KEKWFENEWQGKNP]
Phosphorylation of ERK [1]; 50 ng/ml peptide for 5 min, then 10 ng/ml HGF for 5 min at 37° C
  phosphorylation of ERK which is reduced by: 75-95%

## KEQWFGNRWHEGYR [human v6-II, KEQWFGNRWHEGYR]
Phosphorylation of ERK [2]
  phosphorylation of ERK which is reduced by: 30-50%
Phosphorylation of ERK [3]
  phosphorylation of ERK which is reduced by: 30-50%

## WADPNSTTEEAATQKEKWFENEWQGKNP [v6-Is1-9]
Phosphorylation of ERK [1]; 10, 50 and 100 ng/ml peptide for 5 min, then 10 ng/ml HGF for 5 min
  phosphorylation of ERK which is reduced by: more than 50%
